Results: patent US12590096B2, “Imidazo[2,1-f][1,2,4]triazin-4-amine as TLR8 agonists” (BeOne Medicines | GmbH, priority 2019, dated 2026)

Protein sequences, listed by entry. Tags and fused reporters are not part of them. Residues count along the entry.
UniProt Q9NR97, 27-1041 limits assumed: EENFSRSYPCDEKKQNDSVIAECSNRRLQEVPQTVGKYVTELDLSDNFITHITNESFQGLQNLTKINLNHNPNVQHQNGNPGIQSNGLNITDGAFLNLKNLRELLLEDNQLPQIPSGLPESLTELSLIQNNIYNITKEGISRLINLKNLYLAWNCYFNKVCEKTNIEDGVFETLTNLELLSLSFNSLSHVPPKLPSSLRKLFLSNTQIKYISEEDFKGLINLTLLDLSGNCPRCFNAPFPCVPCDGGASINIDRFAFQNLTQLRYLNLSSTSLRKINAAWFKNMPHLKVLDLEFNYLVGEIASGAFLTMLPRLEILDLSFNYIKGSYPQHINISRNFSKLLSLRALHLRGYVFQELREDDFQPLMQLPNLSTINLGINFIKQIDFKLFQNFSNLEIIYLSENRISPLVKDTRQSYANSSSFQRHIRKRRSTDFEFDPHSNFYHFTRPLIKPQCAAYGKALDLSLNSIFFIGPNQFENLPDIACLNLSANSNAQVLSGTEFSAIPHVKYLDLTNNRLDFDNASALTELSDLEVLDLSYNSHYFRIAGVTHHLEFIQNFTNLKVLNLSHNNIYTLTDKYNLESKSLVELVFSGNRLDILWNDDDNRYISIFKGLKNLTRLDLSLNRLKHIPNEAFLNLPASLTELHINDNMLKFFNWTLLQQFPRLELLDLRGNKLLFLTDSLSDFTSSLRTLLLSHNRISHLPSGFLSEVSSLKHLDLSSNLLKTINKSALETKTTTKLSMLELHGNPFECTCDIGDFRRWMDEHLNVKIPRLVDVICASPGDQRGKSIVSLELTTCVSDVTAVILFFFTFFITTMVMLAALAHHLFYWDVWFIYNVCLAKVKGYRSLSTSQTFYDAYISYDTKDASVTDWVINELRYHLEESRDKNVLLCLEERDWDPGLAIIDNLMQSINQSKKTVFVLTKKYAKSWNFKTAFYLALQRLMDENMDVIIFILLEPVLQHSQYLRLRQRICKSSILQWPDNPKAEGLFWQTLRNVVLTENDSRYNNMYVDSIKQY

What was measured:
[1] = tested on: PBMC (peripheral blood monocyte); assay: PBMC determination: cytokines in culture supernatant measured by HTRF; settings: human PBMC, 24 h
Procedure: Determination of PBMC (Peripheral Blood Monocyte) Cell Preparation, Separation and Culture
Human whole blood was collected from healthy volunteers using BD Vacutainer® Lithium Heparin Tubes. PBMCs were prepared using Ficoll separation medium (GE Healthcare) by SopMate™ (STEMCELL). The cell survival rate was over 85% as monitored by Countstar. PBMCs were cultured in RPMI 1640 (Gibco) 10% (v/v) FBS (Gibco), 1×MEM NEAA (Gibco), 1× GlutaMAX (Gibco), 1 mM sodium pyruvate (Gibco), 50 uM 2-mercaptoethanol (sigma), and 100 U/ml penicillin-streptomycin (Thermo fisher Scientific).
PBMCs were plated into 96-well plates (costar 3894) with a density of 2×10^5 cells/well. Then, TLR7/8 compound was added, and serial dilution was carried out at ten points. The final concentration in 0.1% DMSO/RPMI 1640 ranged from 1 nM to 10 μM. Then, the plates were incubated in 5% CO2 at 37° C. for 24 h.
HTRF (Homogeneous Time-Resolved Fluorescence)
After the specified time point, according to the manufacturers recommendations, the cytokines in the cell culture supernatant were measured by Human IL6 kit (cisbio) and Human TNF alpha kit (cisbio). The EC50 of each compound was determined by calculating the maximum activation percentage identified using Resiquimod or Motolimod.

[2] = biological target: human TLR 8 protein in HEK-blue hTLR 8 tool cell line (Homo sapiens, UniProt Q9NR97); assay: TLR8 stimulation determined by HEK-Blue Detection (NF-κB/SEAP reporter); settings: read-out: EC50 (nmol); HEK-Blue hTLR8 cells, 16 h incubation, relative to maximum activation by Resiquimod or motolimod
Source text: TLR8 Stimulation Determined by HEK-Blue Detection
This assay was designed to study the stimulation of human TLR 8 protein in HEK-blue hTLR 8 tool cell line by monitoring the activation of NF-κB. HEK-blue hTLR8 cells were obtained by co-transfection of hTLR8 gene and optimized secretory embryonic alkaline phosphatase (SEAP) reporter gene into HEK293 cells. SEAP reporter gene was put under the control of […] minimal promoter fused with five NF-κB and AP-1-binding sites. NF-κB and AP-1 were activated by stimulation with TLR 8 ligand, thus inducing the expression of SEAP. The level of SEAP can be easily determined by HEK-Blue Detection (a cell culture medium that allows real-time detection of SEAP). HEK-Blue Detection comprises all nutrients needed for cell growth and specific SEAP color substrates. The hydrolysis of substrate by SEAP produces purple/blue color which can be measured by spectrophotometer.
When growing to 50-80% confluence, HEK-Blue hTLR7/8 cells were plated into 96-well plates (costar 3599) at a density of 40,000 cells/well. Then, the compound serially diluted at 10 points with a final concentration ranging from 1 nM to 10 μm in 0.1% DMSO/HEK-Blue Detection was added. […] Optical density at 620-655 nm was read on BMG PHERAstar FSX instrument. The EC50 of each compound was determined by calculating the maximum activation percentage identified using Resiquimod or motolimod. […]

SMILES: CCC[C@H](C)Oc1nc(N)c2ncc(CC3CCN(CCCNC)CC3)n2n1
- EC50 ([1]; read-out: IL6 (EC50), Human IL6 kit (HTRF)): 247 nM
- EC50 ([1]; read-out: TNF-alpha (EC50), Human TNF alpha kit (HTRF)): 430 nM
- EC50 [2]: 66 nM

Where two headings read alike, the source gives them in different places. Structures were worked out from names or drawings and are uncertain.
